Our source for the binding values is patent publication US20110165623A1.

Test [1] deals with purified recombinant mature TGFβ1 (expressed in CHO cells from the modified porcine TGFβ1 cDNA) (porcine) (UniProt P07200). Put plainly: mature TGFβ1 purified together with His-tagged LAP on Ni-NTA, released by acid.
Test [2] addresses 8-histidine tagged latency-associated peptide (LAP) of porcine TGFβ1 with Cys 33 replaced by serine (porcine) (UniProt P07200). Put plainly: co-purification on a Ni-NTA column through the 8-histidine tag on LAP, SDS-PAGE stained with Coomassie blue.

These are yes or no findings as the source states them, for the method shown. For some assays here: In cells and extracts the contact can be indirect. Some results given as binding are weak or reduced against the parent protein; the word gives no strength.

Regarding “8-histidine tagged latency-associated peptide (LAP) of porcine TGFβ1 with Cys 33 replaced by serine (from UniProt P07200 34-278)”, in test [1], the binding entry is reported as “binds”.
Regarding “purified recombinant mature TGFβ1 (expressed in CHO cells from the modified porcine TGFβ1 cDNA) (from UniProt P07200 279-390) (ligand)”, the binding entry in test [2] is recorded as “binds”.
